Experimental data taken from publication PMC5789818.
No constants are given. Whether binding was seen depends on the method and setting. Binding seen in cells or lysates may run through a third protein. Some entries that bind do so weakly or less than the wild type.

Chains of the proteins cited; added tags and fusions are not shown.
UniProt Q14974: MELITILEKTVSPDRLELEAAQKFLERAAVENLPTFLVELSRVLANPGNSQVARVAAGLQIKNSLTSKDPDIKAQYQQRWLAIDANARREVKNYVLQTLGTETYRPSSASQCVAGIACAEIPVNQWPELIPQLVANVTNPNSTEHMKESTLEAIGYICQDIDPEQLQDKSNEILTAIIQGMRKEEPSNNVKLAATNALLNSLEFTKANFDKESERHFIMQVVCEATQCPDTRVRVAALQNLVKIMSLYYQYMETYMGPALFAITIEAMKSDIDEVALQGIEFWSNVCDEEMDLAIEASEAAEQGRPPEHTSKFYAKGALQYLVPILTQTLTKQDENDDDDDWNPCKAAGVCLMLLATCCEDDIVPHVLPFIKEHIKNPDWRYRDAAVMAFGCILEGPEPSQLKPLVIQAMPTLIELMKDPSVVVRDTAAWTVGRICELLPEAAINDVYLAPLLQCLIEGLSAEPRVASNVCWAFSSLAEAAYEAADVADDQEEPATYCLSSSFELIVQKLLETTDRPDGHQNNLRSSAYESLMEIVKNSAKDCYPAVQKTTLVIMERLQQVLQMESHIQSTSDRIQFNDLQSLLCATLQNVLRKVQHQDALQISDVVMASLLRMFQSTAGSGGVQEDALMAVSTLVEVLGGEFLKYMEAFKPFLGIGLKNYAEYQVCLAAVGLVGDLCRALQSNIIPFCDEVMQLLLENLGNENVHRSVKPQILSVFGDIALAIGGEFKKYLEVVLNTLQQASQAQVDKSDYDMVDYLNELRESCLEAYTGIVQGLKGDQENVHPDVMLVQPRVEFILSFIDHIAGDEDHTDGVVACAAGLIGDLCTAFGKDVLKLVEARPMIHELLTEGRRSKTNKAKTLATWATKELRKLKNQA
UniProt P49792: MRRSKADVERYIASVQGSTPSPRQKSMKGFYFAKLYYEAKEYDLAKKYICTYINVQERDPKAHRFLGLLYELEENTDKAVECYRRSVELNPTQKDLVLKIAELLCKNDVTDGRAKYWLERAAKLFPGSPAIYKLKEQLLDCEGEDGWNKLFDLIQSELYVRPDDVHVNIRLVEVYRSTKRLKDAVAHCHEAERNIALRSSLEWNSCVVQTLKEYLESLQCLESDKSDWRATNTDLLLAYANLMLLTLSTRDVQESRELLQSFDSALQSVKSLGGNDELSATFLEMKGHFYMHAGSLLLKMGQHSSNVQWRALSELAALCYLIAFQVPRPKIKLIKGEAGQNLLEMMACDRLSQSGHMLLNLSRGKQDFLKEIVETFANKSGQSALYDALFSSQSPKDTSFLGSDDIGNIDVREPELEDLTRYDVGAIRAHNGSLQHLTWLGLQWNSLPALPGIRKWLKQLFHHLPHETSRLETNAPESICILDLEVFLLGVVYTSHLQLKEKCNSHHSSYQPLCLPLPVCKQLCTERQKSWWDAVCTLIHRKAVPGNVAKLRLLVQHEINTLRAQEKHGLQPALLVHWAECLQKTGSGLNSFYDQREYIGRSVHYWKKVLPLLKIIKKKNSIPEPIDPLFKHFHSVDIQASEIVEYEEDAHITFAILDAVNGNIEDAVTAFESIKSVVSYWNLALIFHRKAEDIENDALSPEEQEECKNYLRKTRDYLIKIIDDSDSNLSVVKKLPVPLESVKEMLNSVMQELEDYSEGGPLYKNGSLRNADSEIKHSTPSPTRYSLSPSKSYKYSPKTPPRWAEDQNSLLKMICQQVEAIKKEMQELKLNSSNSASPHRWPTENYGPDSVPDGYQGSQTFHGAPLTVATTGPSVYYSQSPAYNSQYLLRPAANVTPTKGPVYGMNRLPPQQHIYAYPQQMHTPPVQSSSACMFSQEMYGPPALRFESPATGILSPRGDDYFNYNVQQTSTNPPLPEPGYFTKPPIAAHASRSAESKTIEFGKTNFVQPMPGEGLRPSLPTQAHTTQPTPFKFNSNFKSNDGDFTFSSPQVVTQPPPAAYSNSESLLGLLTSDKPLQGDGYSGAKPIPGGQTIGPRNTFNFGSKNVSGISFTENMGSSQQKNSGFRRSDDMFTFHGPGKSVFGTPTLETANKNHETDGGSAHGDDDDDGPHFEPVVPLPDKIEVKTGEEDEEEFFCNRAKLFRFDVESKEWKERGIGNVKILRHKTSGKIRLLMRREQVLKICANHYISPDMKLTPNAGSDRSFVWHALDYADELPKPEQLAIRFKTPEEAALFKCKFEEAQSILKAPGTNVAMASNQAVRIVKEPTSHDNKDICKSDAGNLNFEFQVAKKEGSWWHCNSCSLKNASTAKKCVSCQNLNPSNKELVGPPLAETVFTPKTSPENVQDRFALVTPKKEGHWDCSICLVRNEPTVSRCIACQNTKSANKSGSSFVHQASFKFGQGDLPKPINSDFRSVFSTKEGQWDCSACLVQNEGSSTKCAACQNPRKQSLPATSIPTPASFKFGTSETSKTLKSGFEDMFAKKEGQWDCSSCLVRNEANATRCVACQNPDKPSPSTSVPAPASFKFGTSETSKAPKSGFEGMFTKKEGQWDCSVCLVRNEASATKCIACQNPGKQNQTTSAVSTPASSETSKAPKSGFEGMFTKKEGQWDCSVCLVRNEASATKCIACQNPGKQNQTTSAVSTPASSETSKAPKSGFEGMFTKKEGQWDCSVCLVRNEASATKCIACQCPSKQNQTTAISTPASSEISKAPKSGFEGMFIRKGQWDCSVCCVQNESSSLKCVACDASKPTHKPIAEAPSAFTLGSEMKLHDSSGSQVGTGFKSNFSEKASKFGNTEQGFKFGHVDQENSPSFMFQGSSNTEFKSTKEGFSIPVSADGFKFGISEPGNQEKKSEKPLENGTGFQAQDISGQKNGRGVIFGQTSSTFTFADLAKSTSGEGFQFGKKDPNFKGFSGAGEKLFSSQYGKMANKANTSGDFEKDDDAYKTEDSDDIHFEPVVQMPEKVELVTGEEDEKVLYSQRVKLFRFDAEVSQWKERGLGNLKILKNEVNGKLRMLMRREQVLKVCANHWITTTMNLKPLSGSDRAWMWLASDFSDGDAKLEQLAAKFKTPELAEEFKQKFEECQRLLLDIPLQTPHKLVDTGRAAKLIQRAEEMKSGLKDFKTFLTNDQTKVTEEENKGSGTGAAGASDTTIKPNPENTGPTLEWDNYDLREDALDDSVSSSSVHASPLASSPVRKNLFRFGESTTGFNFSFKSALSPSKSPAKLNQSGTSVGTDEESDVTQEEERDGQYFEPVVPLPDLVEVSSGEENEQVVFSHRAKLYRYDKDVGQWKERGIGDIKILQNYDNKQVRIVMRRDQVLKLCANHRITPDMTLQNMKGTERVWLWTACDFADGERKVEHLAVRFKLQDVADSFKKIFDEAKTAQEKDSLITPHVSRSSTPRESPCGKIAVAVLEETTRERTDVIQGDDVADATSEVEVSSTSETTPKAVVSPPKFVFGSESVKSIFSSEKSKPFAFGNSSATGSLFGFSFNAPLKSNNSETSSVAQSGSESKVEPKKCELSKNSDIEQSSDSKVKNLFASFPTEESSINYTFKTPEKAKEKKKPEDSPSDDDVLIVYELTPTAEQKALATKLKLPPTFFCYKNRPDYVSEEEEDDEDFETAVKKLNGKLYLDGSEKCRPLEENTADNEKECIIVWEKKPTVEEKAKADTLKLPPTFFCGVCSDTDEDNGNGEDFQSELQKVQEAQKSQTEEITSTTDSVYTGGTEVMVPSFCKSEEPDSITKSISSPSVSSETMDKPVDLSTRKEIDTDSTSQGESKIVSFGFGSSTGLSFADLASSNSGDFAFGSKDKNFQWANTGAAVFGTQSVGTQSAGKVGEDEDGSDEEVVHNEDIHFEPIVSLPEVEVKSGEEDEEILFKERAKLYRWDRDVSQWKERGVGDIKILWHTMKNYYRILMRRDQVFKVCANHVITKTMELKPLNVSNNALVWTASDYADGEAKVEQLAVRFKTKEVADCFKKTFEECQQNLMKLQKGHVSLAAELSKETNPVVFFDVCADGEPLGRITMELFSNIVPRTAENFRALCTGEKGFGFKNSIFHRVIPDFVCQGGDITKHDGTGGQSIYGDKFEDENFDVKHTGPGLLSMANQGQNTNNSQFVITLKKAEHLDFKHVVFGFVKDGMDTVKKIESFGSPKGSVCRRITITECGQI
UniProt O43684: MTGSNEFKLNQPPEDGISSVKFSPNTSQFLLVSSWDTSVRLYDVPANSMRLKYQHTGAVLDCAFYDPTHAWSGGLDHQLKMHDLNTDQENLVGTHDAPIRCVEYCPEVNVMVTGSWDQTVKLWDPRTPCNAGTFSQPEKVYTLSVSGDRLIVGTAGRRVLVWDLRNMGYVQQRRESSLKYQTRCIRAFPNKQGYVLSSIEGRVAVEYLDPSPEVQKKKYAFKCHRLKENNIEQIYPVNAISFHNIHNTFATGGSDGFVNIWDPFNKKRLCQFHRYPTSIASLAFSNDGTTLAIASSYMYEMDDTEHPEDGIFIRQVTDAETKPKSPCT

Columns and labels:
[1] = target: Human karyopherin beta-1/importin beta-1 (human (endogenous in HeLa)) (UniProt Q14974); assay: proximity ligation; in situ PLA (Duolink) in fixed HeLa cells, mouse and rabbit primary antibodies for each pair; non-synchronized and RO3306-synchronized cultures; automated 40x acquisition and 100x high-resolution imaging of mitotic cells
[2] = target: Human karyopherin beta-1/importin beta-1 (human (endogenous in HeLa)) (UniProt Q14974); assay: condition: only cells treated with 50 μM Importazole; proximity ligation; in situ PLA (Duolink) in fixed HeLa cells treated with 50 μM Importazole for the last 2-3 hours of culture
[3] = target: Human karyopherin beta-1/importin beta-1 (human (endogenous in HeLa)) (UniProt Q14974); assay: proximity ligation; in situ PLA (Duolink) in fixed HeLa cells, mouse and rabbit primary antibodies for each pair; non-synchronized and RO3306-synchronized cultures; automated 40x acquisition and 100x high-resolution imaging of mitotic cells; remark: listed apart in the source

Row | Molecule | binding [1] | binding [2] | binding [3]
1 | E3 SUMO-protein ligase RanBP2 (from UniProt P49792 1-3224) | binds | no binding | 
2 | Mitotic checkpoint protein BUB3 (from UniProt O43684 1-328) | binds | no binding | 
3 | Nucleolar spindle-associated protein 1 (protein, UniProt Q9BXS6 1-441) MIIPSLEELDSLKYSDLQNLAKSLGLRANLRATKLLKALKGYIKHEARKGNENQDESQTSASSCDETEIQISNQEEAERQPLGHVTKTRRRCKTVRVDPDSQQNHSEIKISNPTEFQNHEKQESQDLRATAKVPSPPDEHQEAENAVSSGNRDSKVPSEGKKSLYTDESSKPGKNKRTAITTPNFKKLHEAHFKEMESIDQYIERKKKHFEEHNSMNELKQQPINKGGVRTPVPPRGRLSVASTPISQRRSQGRSCGPASQSTLGLKGSLKRSAISAAKTGVRFSAATKDNEHKRSLTKTPARKSAHVTVSGGTPKGEAVLGTHKLKTITGNSAAVITPFKLTTEATQTPVSNKKPVFDLKASLSRPLNYEPHKGKLKPWGQSKENNYLNQHVNRINFYKKTYKQPHLQTKEEQRKKREQERKEKKAKVLGMRRGLILAED |  | no binding | binds
